Not every detail of the peptide structures is certain; ends, links or a residue may be inferred. Numbered stars: 1 amine (or outer) side, 2 acyl side, 3 side chain; on linkers, the order of the positions; unused ones are H or OH. Bridge positions count the residues as written; N and C are the ends. Square brackets hold non-standard residues; d marks the D form. Side chains are listed from the residue outwards. Peptide text beside a SMILES is read from it. * marks the point of attachment. C18 diacid = O=C(O)CCCCCCCCCCCCCCCCC(=O)*; γGlu = O=C(O)[C@H](CCC(=O)[*:2])N[*:1]; AEEA = NCCOCCOCC(=O)O; Aib = CC(C)(N)C(=O)O
Key:
male ZDF rats = assay: Chronic study in male ZDF rats (food intake, body weight, FBG, HbA1c, OGTT); format: in vivo, rat
Method: A chronic study was performed in male ZDF rats. (obese homozygous recessive (fa/fa) strain: 370) (Charles River, USA). Rats were delivered 5 weeks of age. The rats were housed 2-3 per cage.
Rats were delivered to the animal facility of Nordic Bioscience at five weeks of age (DAY −6). Rats were acclimatized for three days. HbA1c and BW was registered (DAY −3). Rats were randomized based on HbA1c (primarily) and BW (secondly) at […]. The study was initiated at DAY 1.
Animals were dosed once daily with KBP-066 or saline (vehicle). Dosing with KBP-066A11.03 was performed once every third day. Dosing was administered subcutaneously (SC) around noon.
Saline: Dosage volume was 1 mL/kg. KBP-066: Dosage volume was 1 mL/kg, Dosage concentration was 5, 50 or 500 μg/kg, and compound concentration was 5, 50 or 500 mg/L. The dose equivalent in nmol/kg is 1.43, 14.3 and 143 nmol/kg, respectively. KBP-066A11.03: Dosage volume was 1 mL/kg, dosage concentration was 25 nmol/kg, and compound concentration was 25 mmol/L. The dose equivalent in μg/kg is 104 μg/kg.
DAY −3: HbA1c measurement DAY 1: (first day of study), rats were fasted for 6 h and a BG and blood sample was taken. Dosing was performed subsequently. DAY 14: Fasting blood glucose (FBG)+blood sample (6 h fasting) DAY 28: FBG+blood sample (6 h fasting) DAY 42: FBG+blood sample (6 h fasting) DAY 57: (gr. 1+2)/58 (gr. 3+4) OGTT with no pre-dosing of KBP-066 or KBP-066A11.03 (11 h fasting). Hb1Ac is measured during the OGTT at t=120 or t=180. DAY 62: FBG+blood sample (6 h fast)
Food intake was monitored daily. Body weight was monitored daily for first three weeks, then twice weekly after week three.
Fasting blood glucose was monitored every two weeks using Accu-Check® Avia monitoring system (Roche Diagnostics, Rotkreuz, Switzerland): Measurement was taken from the tail vein (25 G needle).
Rats were non-fasted for the first (randomization) and second (after the second OGTT) HbA1c measurement. A single drop of blood was applied to the HbA1c cassette and the HbA1c was measured using a DCA Vantage Analyzer. […]

20 week HFD SD rats = assay: Single dose food intake and body weight test in HFD SD rats (Examples 3, 4, 5, 8, 10, 12); format: in vivo, rat
Text: In the animal model studies, 12 week healthy Sprague Dawley (SD) rats were used to assess the potency of the acylated KBPs. In some examples they were fed normal chow during prior and during the tests, whereas in other examples, the 12 week healthy SD rats were fed high fat diet (HFD) for eight weeks prior to the test and for the duration of the test.
(§1) Rats were single caged four days prior to the test. Rats were randomized by weight into eleven groups (Vehicle (0.9% NaCl), KBPs (doses: 36 nmol/kg (150-157 μg/kg)). They were fasted overnight and then treated with a single dose of peptide or vehicle in the morning using subcutaneous administration. Food intake was monitored in the following intervals (0-4 hours, 4-24 hours, 24-48 hours . . . 144-168 hours). Body weight was measured at baseline and every 24 hours post s.c injection.
as §1, with “(doses: 4 nmol/kg (^17 μg/kg), 12 nmol/kg (^50 μg/kg) or” for “(doses:”, “([…]” for “(150-157”, “injection. […]” for “injection.”
The rats were fasted overnight and then treated with a single dose of peptide or vehicle in the morning using subcutaneous administration. Food intake was monitored in the following intervals (0-4 hours, 4-24 hours, 24-48 hours . . . […]). Body weight was measured at baseline and every 24 hours post s.c injection.
Rats were single caged four days prior to the test. Rats were randomized by weight into eight groups (Vehicle (0.9% NaCl), KBPs (doses: 3 nmol/kg (^10-11 μg/kg)). They were fasted overnight and then treated with a single dose of peptide or vehicle in the morning using subcutaneous administration. Food intake was monitored in the following intervals (0-4 hours, 4-24 hours, 24-48 hours, 48-72 hours, and 72-96 hours). Body weight was measured at baseline and at 4 hour, 24 hours, 48 hours, 72 hours and 96 hours post s.c injection. […]
Rats were single caged four days prior to the test. Rats were randomized by weight into eight groups (Vehicle (0.9% NaCl), KBPs (doses: 4 nmol/kg (^13-14 μg/kg)). They were fasted overnight and then treated with a single dose of peptide or vehicle in the morning using subcutaneous administration. Food intake was monitored in the following intervals (0-4 hours, 4-24 hours, 24-48 hours, 48-72 hours, and 72-96 hours). Body weight was measured at baseline and at 4 hour, 24 hours, 48 hours, 72 hours and 96 hours post s.c injection.

CC(=O)N[C@H]1CSSC[C@@H](C(=O)NC(C)(C)C(=O)N[C@@H](CC(C)C)C(=O)NCC(=O)N[C@@H](CCCCNC(=O)COCCOCCNC(=O)COCCOCCNC(=O)CC[C@H](NC(=O)CCCCCCCCCCCCCCCCC(=O)O)C(=O)O)C(=O)N[C@@H](CC(C)C)C(=O)N[C@@H](CO)C(=O)N[C@@H](CCC(N)=O)C(=O)N[C@@H](CC(=O)O)C(=O)N[C@@H](CC(C)C)C(=O)N[C@@H](Cc2c[nH]cn2)C(=O)N[C@@H](CCCNC(=N)N)C(=O)N[C@@H](CC(C)C)C(=O)N[C@@H](CCC(N)=O)C(=O)N[C@H](C(=O)N[C@@H](Cc2ccc(O)cc2)C(=O)N2CCC[C@H]2C(=O)N[C@@H](CCCCN)C(=O)N[C@H](C(=O)N[C@@H](CC(=O)O)C(=O)N[C@H](C(=O)NCC(=O)N[C@@H](C)C(=O)N[C@@H](CC(N)=O)C(=O)N[C@@H](C)C(=O)N2CCC[C@H]2C(N)=O)C(C)C)[C@@H](C)O)[C@@H](C)O)NC(=O)[C@H]([C@@H](C)O)NC(=O)[C@H](CO)NC(=O)[C@H](CC(C)C)NC(=O)[C@H](CC(N)=O)NC(=O)[C@H](CO)NC1=O [KBP-356] (Ac-CSNLSTC[Aib]LGK([AEEA-AEEA-γGlu-C18 diacid])LSQDLHRLQTYPKTDVGANAP-NH2; disulfide 1-7 (inferred)) was tested, and the “reduction in food intake vis-à-vis vehicle” value (male ZDF rats; accumulated food intake, 25 nmol/kg s.c. every third day) was roughly 35%, the “body weight regain rate (in words)” value (male ZDF rats; compared to vehicle) was “slowest regain rate” and the “increase in FBG” value (male ZDF rats; during the 62-day study, 25 nmol/kg s.c. every third day) was 5 mM. For the same compound, the “Food Intake ΔFOOD Sustained Attenuation (4 nmol/kg) Hours” value (20 week HFD SD rats; 4 nmol/kg single dose) was 72 to 96 h, the “Food Intake ΔFOOD Sustained Attenuation (36 nmol/kg) Hours” value (20 week HFD SD rats; 36 nmol/kg single dose) was 96 h and the “Food Intake ΔFOOD Sustained Attenuation (4 nmol/kg) Hours” value (20 week HFD SD rats; Table 4.2: backbone KBP-066, single s.c. dose 4 nmol/kg, HFD SD rats) was 72 to 96 h. For the same compound, the “Food Intake ΔFOOD Sustained Attenuation (4 nmol/kg) Hours” value (20 week HFD SD rats; Table 4.4: acylation linkers, backbone KBP-066, single s.c. dose 4 nmol/kg, HFD SD rats) was 72 to 96 h.
